According to patent US20240216589A1, “DRUG DELIVERY COMPOSITIONS AND METHODS OF CONTROLLING DRUG DELIVERY RATES OF SUBCUTANEOUS SENSORS” (ABBOTT DIABETIS CARE INC., priority 2022, published 2024):
At least one compound was matched to its structure with a doubt left.

Assay: In vitro Dex release of a drug delivery composition in pH 7.4 PBS at 37° C. under agitation, HPLC
Format: physicochemical
Settings: PVP-PS copolymer matrices, FIG. 28

## CC(=O)OCC(=O)[C@@]1(O)[C@H](C)C[C@H]2[C@@H]3CCC4=CC(=O)C=C[C@]4(C)[C@@]3(F)[C@@H](O)C[C@@]21C [DexA, dexamethasone acetate]
  release rate when dexamethasone is replaced by dexamethasone acetate: decreases
